From PubChem BioAssay AID1347075 (National Center for Advancing Translational Sciences (NCATS), 2019)
Out of some 400,000 compounds screened, about 5,500 (1.4%) were called active. Inconclusive means that the source gave no clear call. Such entries were picked first, then a sample of the others. Calls follow the shape of the dose curve; as a rule, active = well fitted cell-killing curve with a large enough effect; inconclusive = small, poorly fitted or top-dose-only effect, or effect the other way; inactive = flat fitted curve, though single readings scatter. Potencies beside an inconclusive call are fits to weak or partial responses and may not hold up.

assay: qHTS assay for MDR1-selective chemotherapeutics: Primary screen using the parental adenocarcinoma cell KB-3-1; settings: KB-3-1 viability, CellTiter-Glo ATP luminescence, 72 h; activity change, negative = cytotoxic: at 46.1 µM (top of the series); also: nearly all actives have a fitted effect of over 60% in size
Source text: A prime difficulty in effectively treating cancer is the development of cellular resistance to multiple structurally unrelated anticancer drugs, a phenomenon known as multidrug resistance (MDR). […] Numerous strategies to overcome P-gp-mediated MDR have been explored, including the design of drugs that evade recognition and efflux, and development of inhibitors to block efflux and restore drug accumulation. […] An alternative approach is to exploit resistance by identifying drugs that target MDR cells over the non-resistant parental cells from which they were selected. […] The development of MDR1-selective agents represents a new strategy for resolving multidrug resistance, as it remains a long-standing clinical challenge for cancer chemotherapy.
Our goal is to identify compounds that selectively kill P-gp-expressing MDR cells. We will identify MDR1-selective compounds by comparing toxicity of compounds in the screening library against parental, drug-naive (KB-3-1) adenocarcinoma cells as well as their drug-selected MDR sub-line (KB-V1). The differential toxicity of compounds against these two cell lines will be used to identify MDR1-selective compounds, whose cytotoxicity is potentiated, rather than diminished, by P-gp expression. This assay will be utilized to conduct a quantitative high-throughput screen (qHTS) in collaboration with the NIH Chemical Genomics Center to identify selective agents, and probe hits arising from the screen will be validated using secondary assays and characterized through a well-established follow-up research program. This screen was run against the entire NCGC library collection of about 400,000 compounds.
NIH Molecular Libraries Probe Production Network [MLPCN]
NIH Chemical Genomics Center [NCGC]
PI: Michael Gottesman PhD, National Cancer Institute, NIH
Briefly, 5 microL of media containing either KB-3-1 cells (columns 1-2, 4-48) are dispensed into Greiner white, treated solid-bottom 1536-well assay plates (media-only control is added to column 3). Compounds are then transferred via Kalypsys pin tool equipped with 1536-pin array (10 nL slotted pins, V&P Scientific, San Diego, CA). Following addition of compound, the plates are incubated at 37 degrees C for 72 hours. CellTiter-Glo (2.5 µL/well) is then added, and the plates are read in a ViewLux reader (Perkin-Elmer, clear luminescence filter, 1 second exposure, 1x binning) following a 10 minute incubation. All cells are dispensed in DMEM phenol-red free media containing 10% FBS.
Library plates were screened starting from the lowest and proceeding to the highest concentration. Vehicle-only plates, with DMSO being pin-transferred to columns 5-48, will be inserted uniformly at the beginning and the end of each library in order to monitor and record any shifts in the background, which can be affected by reagent dispensers or loss in enzyme activity over time. Screening data will be corrected, normalized, and concentration-effect relationships will be derived by using publicly-available NCGC, NCATS curve fitting algorithms (http://ncgc.nih.gov/pub/openhts).
% is scaled to controls: 0 for no effect and ±100 for the full control effect; potency is read from the fitted curve at half-maximal effect.

SMILES	Potency	activity change, negative = cytotoxic
CCN1CCc2nc3sc(C(=O)Nc4cccc(Cl)c4C)c(N)c3cc2C1	active: 16.4 µM	
CCOC(=O)n1c(=O)n(C)c2ccc(Br)cc21	inconclusive: 29.1 µM [cytotoxic, single point]	
COc1ccc(-c2c(C(=O)c3ccccc3)[nH]c(N)c2C(=O)NC2CC2)cc1OC	inconclusive: 23.1 µM [rising, partial curve, poor fit]	
CCC(=O)N1CCc2cc(Br)cc(S(=O)(=O)N3CCCC(C(=O)Nc4ccc(C(C)C)cc4)C3)c21 (stereo not given)		inactive: 3.85%
Nc1cc(CN2C(=O)c3ccccc3C2=O)cc(Cl)c1O		inactive: -0.233%
CCOC(=O)[C@]12CCC=C1N(Cc1cccc3ccccc13)C(=O)[C@H](CC(=O)NCc1ccc(OC)c(OC)c1)C2	active: 6.51 µM	
Cc1sc(NC(=O)c2ccco2)c(C(c2ccccc2)N2CCC(C)CC2)c1C (stereo not given)	inconclusive: 23.1 µM [cytotoxic, single point]	
COc1cccc(CNC(=O)CSc2nnc3c(n2)[nH]c2ccc(C)cc23)c1		inactive: 1.62%
COc1cccc(-c2cn3nc4c(nc3n2)CCCC4)c1	active: 18.4 µM	
COc1ccc(N2CCN(CCCNC(=O)CN3CCN(Cc4ccccc4C)C3=O)CC2)cc1	inconclusive: 23.1 µM [cytotoxic, single point]	
NS(=O)(=O)c1ccc(CNC(=O)c2ccc(Cl)c([N+](=O)[O-])c2)cc1		inactive: 27.1%
COc1cccc(N2CCN(c3ncnc4c3cnn4-c3ccc(C)cc3C)CC2)c1	active: 10.3 µM	
Cc1csc(NC(=O)c2cc(-c3ccccc3)nc3ccccc23)n1	inconclusive: 29.1 µM [cytotoxic, single point]	
CC(C)(C)S(=O)N1Cc2cc(C(=O)NCC(F)(F)F)nc(-c3cccc(-c4cccc(F)c4)c3)c2[C@@H]1CCO (stereo not given in full)	inconclusive: 29.1 µM [cytotoxic, single point]	
O=C(NC1CCOCC1)C1CCC(=O)N(Cc2ccc(Cl)cc2)C1 (stereo not given)	inconclusive: 4.61 µM [cytotoxic, partial curve]	
COc1cccc(NS(=O)(=O)c2ccc(S(=O)(=O)N3CCOCC3)cc2)c1	inconclusive: 29.1 µM [cytotoxic, single point]	
c1ccc2c(c1)C1=NCCN1c1ccccc1-2	inconclusive: 5.8 µM [cytotoxic, full curve, poor fit]	
CC(C)CN1C(=O)/C(=C(/C#N)C(=O)NC2CCCCC2)c2ccccc21	inconclusive: 20.6 µM [cytotoxic, single point]	
Cc1ccc(S(=O)(=O)NC2(C(F)(F)F)C(=O)Nc3c2c(=O)[nH]c(=O)n3-c2ccccc2)cc1 (stereo not given)		inconclusive: 10.7%
NS(=O)(=O)c1ccc(N/N=C/C=C/c2ccccc2[N+](=O)[O-])cc1	inconclusive: 16.4 µM [cytotoxic, single point]	
N/C(=N\N=C\c1ccc2c(c1)OCO2)c1nonc1N	inconclusive: 20.6 µM [cytotoxic, single point]	
O=C(NCc1ccco1)/C(=C/c1cccc(C(F)(F)F)c1)c1nc2ccccc2[nH]1	inconclusive: 16.4 µM [cytotoxic, single point]	
Cc1ccc(Sc2c([N+](=O)[O-])ncn2C)cc1		inactive: -1.88%
CC(NC(=O)CCl)c1ccc(Cl)c(Cl)c1 (stereo not given)	inconclusive: 29.1 µM [cytotoxic, single point]	

Part of the list above, reformatted.
CCC(=O)N1CCc2cc(Br)cc(S(=O)(=O)N3CCCC(C(=O)Nc4ccc(C(C)C)cc4)C3)c21 (stereo not given)
  activity change, negative = cytotoxic: inactive: 3.85%
Nc1cc(CN2C(=O)c3ccccc3C2=O)cc(Cl)c1O
  activity change, negative = cytotoxic: inactive: -0.233%

Carrying on.

SMILES	Potency	activity change, negative = cytotoxic
Cc1ccc(Sc2ccc(N)cc2C#N)cc1		inactive: -1.49%
Cc1cc(Nc2ccccc2)nc(NCc2ccccc2)n1	active: 20.6 µM	
CCCCc1c(Cc2cccc(F)c2)ncn1CCc1ccccc1OC	inconclusive: 29.1 µM [cytotoxic, single point]	
O=C(N/N=C/c1ccccn1)c1ccc(N/N=C/c2ccccn2)cc1		inactive: -17.7%
CCCC(=O)NCC1(N(C)C)CCCCC1	inconclusive: 13 µM [cytotoxic, partial curve, poor fit]	
O=C(NC1CCCc2c1cnn2-c1cc(F)cc(F)c1)c1ccccn1 (stereo not given)	inconclusive: 18.4 µM [cytotoxic, single point]	
O=C(c1cccc(S(=O)(=O)N2CCc3ccccc32)c1)N1CCN(c2ccccc2)CC1	inconclusive: 20.6 µM [cytotoxic, single point]	
COc1ccc(/C=C2\N=C(c3ccccc3Cl)NC2=O)cc1	inconclusive: 16.4 µM [cytotoxic, single point]	
CCCCSc1cnn(-c2ccccc2)c(=O)c1SCCCC	active: 18.4 µM	
CCN1CCN(c2ncc3c(n2)CCN(Cc2cc(F)cc(F)c2)C3)CC1	inconclusive: 16.4 µM [cytotoxic, single point]	
CC(=O)c1cccc(NC(=O)N2CCC(NC(=O)c3ccco3)CC2)c1		inactive: 3.48%
COCC(=O)Nc1ccc2c(c1)[C@@H]1C[C@H](CC(=O)NCc3cccc(F)c3)O[C@@H](CO)[C@@H]1O2		inactive: 8.4%
CCOC(=O)c1c(C)[nH]c(C(=O)COC(=O)[C@H](C)N2C(=O)C3CCCCC3C2=O)c1C (stereo not given in full)	inconclusive: 11.6 µM [cytotoxic, partial curve]	
C[C@@H]1CN([C@H](C)CO)C(=O)CCCn2cc(nn2)CO[C@H]1CN(C)S(=O)(=O)c1ccc(F)cc1		inconclusive: -2.88%
Cc1cccc(N2CCN(C(=O)c3ccc4ccccc4c3)CC2C)c1 (stereo not given)	inconclusive: 29.1 µM [cytotoxic, single point]	
Cc1ccc(S(=O)(=O)CCSc2nc(C)cc(C(F)(F)F)c2C#N)cc1	active: 18.4 µM	
COc1ccccc1NC(=O)CN1CCN(C2c3ccccc3-c3ccccc32)CC1	inconclusive: 25.9 µM [cytotoxic, partial curve, poor fit]	
COc1ccccc1CNC(=O)CN1C(=O)NC2(CCCC2)C1=O		inactive: -7.65%
CCOC(=O)[C@@H]1[C@H]2COc3ccc(Br)cc3[C@@H]2N2C(=O)N(c3ccc(C(F)(F)F)cc3)C(=O)[C@@]12C	inconclusive: 9.2 µM [cytotoxic, partial curve, poor fit]	
O=C(N[C@@H](Cc1ccccc1)C(=O)CCl)OCc1ccccc1	inconclusive: 16.4 µM [cytotoxic, partial curve, poor fit]	
CCSc1nnc2c(n1)[nH]c1c(C)cccc12	inconclusive: 20.6 µM [cytotoxic, single point]	
COc1ccc(S(=O)(=O)N(CC(=O)Nc2ccccc2Br)Cc2ccccc2)cc1	active: 16.4 µM	
CCCCNC(=O)C[C@@H]1C[C@@]2(C(=O)OC)CCCCC=C2N(Cc2ccc3c(c2)OCO3)C1=O		inactive: 5.52%
COc1cc([N+](=O)[O-])cc(/C=N/NC(=O)c2cc(C)nc3ccccc23)c1O	inconclusive: 29.1 µM [cytotoxic, single point]	

SMILES	Potency	activity change, negative = cytotoxic
COCc1cc(CN2CCCC(C(=O)Nc3ccc(-c4ccco4)cc3)C2)ccc1OC (stereo not given)	inconclusive: 29.1 µM [cytotoxic, single point]	
CC(C)c1ccc(/C=C/C(=O)Nc2ccc(CN3CCOCC3)cc2)cc1	inconclusive: 29.1 µM [cytotoxic, single point]	
Cc1noc(C)c1C(=O)OCC(=O)Nc1ccccc1C(=O)NC(C)c1ccccc1 (stereo not given)	inconclusive: 20.6 µM [cytotoxic, single point]	
Cn1c(N/N=C\c2cccc(O)c2)cc(=O)n(C)c1=O	inconclusive: 13 µM [rising, partial curve, poor fit]	
Cc1cc(NC(=O)CS(=O)c2cn(Cc3cccc(Cl)c3)c3ccccc23)no1 (stereo not given)	inconclusive: 25.9 µM [cytotoxic, partial curve, poor fit]	
Fc1cccc(Cc2c(-c3ccco3)nc3c(Cl)cc(C(F)(F)F)cn23)c1		inactive: -1.93%
O=S(=O)(Nc1cccc(CO)c1)c1cccs1	active: 0.206 µM	
COc1cccc(Cn2cnc3c(NS(=O)(=O)c4cc(Cl)ccc4Cl)c(C)c(C)cc32)c1	inconclusive: 29.1 µM [cytotoxic, single point]	
Cc1ccc(-c2nn(-c3ccccc3)cc2C=C2SC(=S)N(CCS(=O)(=O)O)C2=O)cc1	inconclusive: 4.11 µM [cytotoxic, full curve, poor fit]	
CCC1=Nc2cc(C(=O)NCCCOC)ccc2Sc2ccc(Br)cc21	active: 0.82 µM	
CCCCOC(=O)c1sc2nc(N3CCOCC3)c3c(c2c1N)CC(C)(C)OC3	inconclusive: 0.146 µM [rising, full curve]	
O=C(/C=C/c1ccccc1)N1CCN(CCN2C(=O)c3cccc4cccc(c34)C2=O)CC1		inactive: -19.2%
CC1(C)C(=Cc2ccccc2)C(=O)c2ccccc21		inactive: 8.27%
CC(=O)NC(=S)NNC(=O)COc1ccc(Br)cc1	inconclusive: 29.1 µM [cytotoxic, single point]	
Cc1ccc(SCCNC(=O)CN(c2ccccc2)S(=O)(=O)N(C)C)cc1		inactive: 9.86%
COc1ccc2nc(SCC(=O)NC3CCCC3)c(C)cc2c1	active: 7.31 µM	
COCCN1CCCC(CNCc2cn(C)nc2-c2ccc(Oc3ccccc3)cc2)C1 (stereo not given)	inconclusive: 29.1 µM [cytotoxic, single point]	
COc1ccc(/C=N/NC(=O)CCn2c3ccccc3c3ccccc32)cc1O	inconclusive: 29.1 µM [cytotoxic, single point]	
Cc1ccc2nc3c(cc(C(=O)NCc4ccco4)c(=N)n3Cc3ccco3)c(=O)n2c1		inactive: 0%
O=C(c1ccccc1)N1CCN(Cc2ccccc2C(F)(F)F)CC1		inactive: -10.3%
Cc1occc1C(=O)N/N=C/c1c[nH]c2ccccc12		inactive: -4.43%
CCCCCCCCNC(=O)/C(C#N)=C/c1ccccc1[N+](=O)[O-]	inconclusive: 2.91 µM [cytotoxic, full curve, poor fit]	

2 entries from above, as labelled records:
O=S(=O)(Nc1cccc(CO)c1)c1cccs1
  Potency: active: 0.206 µM
COc1cccc(Cn2cnc3c(NS(=O)(=O)c4cc(Cl)ccc4Cl)c(C)c(C)cc32)c1
  Potency: inconclusive: 29.1 µM [cytotoxic, single point]
